Data reported in patent US6362197B1, “Compositions and method for treatment of cough” (Cardiome Pharma Corp., priority 1998, dated 2002).

Columns and labels:
[1] = test system: citric acid-induced cough responses; assay: Citric acid aerosol-induced cough in conscious guinea-pigs, 5 min aerosol pre-treatment; type: in vivo, guinea-pig; details: for Mean latency of cough: time to onset of first cough after initiation of citric acid aerosol: 5 min pre-treatment; for Mean latency of cough: time to onset of first cough after initiation of citric acid aerosol / Total coughs: number of coughs over 15 min following initiation of 1M citric acid aerosol: mean ± SEM
[2] = test system: citric acid-induced cough responses; assay: Duration of anti-tussive effect against citric acid-induced cough, pre-treatment at various times; type: in vivo, guinea pig; details: 10 mg/ml aerosol
[3] = test system: citric acid-induced cough responses; assay: Therapeutic aerosol treatment after induction of cough by citric acid aerosol; type: in vivo, guinea pig; details: aerosol 10 mg/ml for 5 min, given 2 minutes after citric acid exposure began

With CCN(CC)CC(=O)Nc1c(C)cccc1C [Lidocaine, lidocaine, reference compound] the “Percentage reduction of the cough response compared with matched vehicle control groups” value (shortened to “Percentage reduction”) ([1]; aerosol conc. 0.1 mg/ml) was “(9.3%)”, the “Mean latency of cough: time to onset of first cough after initiation of citric acid aerosol” value (“Mean latency of cough: time” below) ([1]; aerosol conc. 0.1 mg/ml) was 88 ± 20 s and the “Total coughs: number of coughs over 15 min following initiation of 1M citric acid aerosol” value ([1]; aerosol conc. 0.1 mg/ml) was 27.2 ± 5.3. For the same compound, the “Cough frequency (in words)” value ([1]; aerosol conc. 1.0 mg/ml) was “reduce cough frequency”, the “Percentage reduction” value ([1]; aerosol conc. 1.0 mg/ml) was “(32.6%)” and the “Mean latency of cough: time” value ([1]; aerosol conc. 1.0 mg/ml) was 92 ± 25 s. For the same compound, the “Total coughs: number of coughs over 15 min following initiation of 1M citric acid aerosol” value ([1]; aerosol conc. 1.0 mg/ml) was 19.0 ± 4.3, the “Cough frequency (in words)” value ([1]; aerosol conc. 10 mg/ml) was “reduce cough frequency” and the “Latency of cough onset (in words)” value ([1]; aerosol conc. 10 mg/ml) was “did appear to delay onset of the first cough”. For the same compound, the “Percentage reduction” value ([1]; aerosol conc. 10 mg/ml) was “(40.9%)”, the “Mean latency of cough: time” value ([1]; aerosol conc. 10 mg/ml) was 136 ± 21 s and the “Total coughs: number of coughs over 15 min following initiation of 1M citric acid aerosol” value ([1]; aerosol conc. 10 mg/ml) was 15.0 ± 3.0. For the same compound, the “Effect on the time course of cough responses” value ([1]; any of the concentrations used (0.1, 1.0, 10 mg/ml)) was “no significant effect”, the “Effect on latency of cough onset (in words)” value ([2]; all pre-treatment times) was “None of the lidocaine pre-treatments affected the latency of cough onset” and the “Inhibition of cough responses compared with matched vehicle (in words)” value ([2]; any of the time points (5 min to 4 hours)) was “did not result in a significant inhibition”. For the same compound, the “Inhibition of number of cough responses between t=2 and t=10 minutes” value [3] was 39.1% and the “Inhibition of total number of cough responses during the 15 minute observation period compared with matched vehicle” value ([3]; t=0 to t=15 min) was 32.4%.
